Test results reported in US20060188923A1.
These are yes or no findings as the source states them, for the method shown. Some entries that bind do so weakly or less than the wild type.

The chains behind the UniProt entries cited, without tags or fusion partners. Where a name states a change or a piece, a line headed by the entry shows the natural chain unless it says otherwise.
UniProt P13010: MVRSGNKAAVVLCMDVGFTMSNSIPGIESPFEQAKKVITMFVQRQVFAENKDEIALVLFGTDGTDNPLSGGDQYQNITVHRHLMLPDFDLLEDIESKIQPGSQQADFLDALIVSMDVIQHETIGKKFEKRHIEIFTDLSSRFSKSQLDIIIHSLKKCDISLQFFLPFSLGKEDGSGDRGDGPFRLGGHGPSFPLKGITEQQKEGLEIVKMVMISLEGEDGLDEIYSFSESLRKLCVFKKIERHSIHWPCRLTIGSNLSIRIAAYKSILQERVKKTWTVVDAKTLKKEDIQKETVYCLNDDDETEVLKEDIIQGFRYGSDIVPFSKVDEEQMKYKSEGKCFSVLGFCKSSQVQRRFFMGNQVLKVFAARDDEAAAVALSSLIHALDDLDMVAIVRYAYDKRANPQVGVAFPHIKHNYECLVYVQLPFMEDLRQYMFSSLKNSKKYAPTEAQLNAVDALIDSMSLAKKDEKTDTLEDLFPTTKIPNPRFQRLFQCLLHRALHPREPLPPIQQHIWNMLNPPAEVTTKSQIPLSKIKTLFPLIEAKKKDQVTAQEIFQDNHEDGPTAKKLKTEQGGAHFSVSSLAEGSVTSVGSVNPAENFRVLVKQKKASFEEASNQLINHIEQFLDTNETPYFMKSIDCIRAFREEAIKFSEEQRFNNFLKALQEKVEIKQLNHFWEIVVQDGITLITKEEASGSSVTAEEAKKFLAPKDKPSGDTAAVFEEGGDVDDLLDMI

Target: Recombinant Ku80 (rKu80) (human) (UniProt P13010)
Assay: competition ELISA, purified B19 virus as competitor against immobilised rB19ECP

## Human parvovirus B19 virus (from UniProt P07299 1-781)
  binding: binds
